Results published in paper PMC9678360.
Results are given in words; binding and its absence hold for the method and conditions named. Binding seen in cells or lysates may run through a third protein. Some results given as binding are weak or reduced against the parent protein; the word gives no strength. Tags and fused reporters may be left off the sequences shown.

Target: T1, MmpL3-msfGFP (MmpL3 of M. tuberculosis fused to msfGFP) (M. tuberculosis) (UniProt P9WJV5)
T1 sequence: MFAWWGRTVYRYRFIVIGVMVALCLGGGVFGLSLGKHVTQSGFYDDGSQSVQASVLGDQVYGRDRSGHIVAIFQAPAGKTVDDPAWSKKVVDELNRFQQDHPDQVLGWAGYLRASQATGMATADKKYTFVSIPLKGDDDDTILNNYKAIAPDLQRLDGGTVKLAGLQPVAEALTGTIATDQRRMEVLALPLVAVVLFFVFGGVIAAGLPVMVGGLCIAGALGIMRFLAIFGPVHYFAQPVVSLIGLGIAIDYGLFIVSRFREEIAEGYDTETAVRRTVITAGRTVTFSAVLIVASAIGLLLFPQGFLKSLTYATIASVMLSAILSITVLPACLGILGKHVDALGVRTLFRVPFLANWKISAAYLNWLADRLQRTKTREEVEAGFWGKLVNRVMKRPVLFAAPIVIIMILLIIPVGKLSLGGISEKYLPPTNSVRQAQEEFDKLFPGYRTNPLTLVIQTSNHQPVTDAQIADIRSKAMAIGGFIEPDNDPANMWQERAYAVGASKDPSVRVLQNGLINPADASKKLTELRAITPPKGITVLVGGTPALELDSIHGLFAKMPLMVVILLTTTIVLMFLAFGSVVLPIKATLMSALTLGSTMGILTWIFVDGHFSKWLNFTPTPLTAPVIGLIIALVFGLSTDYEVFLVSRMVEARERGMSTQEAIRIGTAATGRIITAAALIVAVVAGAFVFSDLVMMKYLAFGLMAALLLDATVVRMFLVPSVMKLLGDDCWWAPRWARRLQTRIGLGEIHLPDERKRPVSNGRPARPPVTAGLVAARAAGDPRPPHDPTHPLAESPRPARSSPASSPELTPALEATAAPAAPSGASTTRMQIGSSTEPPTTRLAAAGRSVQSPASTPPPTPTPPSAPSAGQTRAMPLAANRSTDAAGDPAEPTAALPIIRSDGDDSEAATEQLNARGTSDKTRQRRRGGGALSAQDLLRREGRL
Assay: co-IP; […]) in PBS, 30 min, 37°C; […]

B1: PgfA-3× FLAG (MSMEG_0317, Polar growth factor A, with a 3× FLAG tag) (protein, UniProt A0QP93 1-398)
chain: MNRAVALRIAACGLLGLGAALLIAALLLTTYTKGKIAKIPLDIDTSLVSDGTATAFDPDSLVAERFKIDRDVPVALQQQMSVEAPSNADVVTFQVGTTLRRTDRQQDAGLLLALVDTVTMNRNTAEAVSSENNPGGAVQKPRAIEDEKPPTNIALPHEGLTYRFPFDTEKKTYPFFDPIAQKAFDANYDGEEDVNGLTTYRFVQNVGYDADGKLADPIKYSSLYEDDADASVTARAEVWGVPGEPDESITMDRFYAASRTFWVDPVSGTIVKSEEHGYQYYAREALKPEVTYVDFKVTTNEESVESQVAAASDERDRIALWTRILPITFTALGLVSLVGGAVLGSFALRTESTLIDPGLDTADHGFFDTQGIQVPGAEAKTEKLPAQRPTDLPPDRPI
binding: binds
